Experimental data reported in PubChem BioAssay AID493014 (National Center for Advancing Translational Sciences (NCATS), 2011).
This is one part of the list. Further columns of the screen follow, without active or inactive calls. The list favours compounds with an active or inconclusive main result. Words in brackets tell the shape of the fitted curve; partial curves, single points and poor fits give uncertain potencies.

Experiment: qHTS Assay to Find Inhibitors of Chronic Active B-Cell Receptor Signaling
Conditions: ABC-DLBCL IkBa-CBG/CBR reporter, luminescence ratio (green luciferase fused to IkBa over red control in TMD8 lymphoma cells), 4 h
Outline: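 TMD8 human ABC-DLBCL cells with doxycycline-inducible IκBα–green luciferase fusion and unfused red luciferase, in 0.5% FBS medium; compounds up to 46 uM, 4 h at 37C. Green/red luminescence ratio, filter-overlap corrected, fitted to concentration-response curves.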

[1] = measured here: CBR red luminescence, cell number
[2] = measured here: IkBa-CBG green luminescence

## COCCCn1c(SCC(=O)NC2CCCC2)nnc1-c1ccco1
[1]
  AC50: 2.91 µM [falling, single point]

## Cc1cccc(/C(N)=N/OC(=O)COc2ccccc2Cl)c1
[1]
  AC50: 2.31 µM [rising, partial curve, poor fit]

## C(=N\N=C\c1ccccn1)/c1ccccn1
[1]
  AC50: 35.5 µM [rising, single point]

## Cn1c(C(C#N)C(=O)Cc2cccc3ccccc23)nc2ccccc21 (configuration not stated)
[1]
  AC50: 1 µM [falling, full curve, poor fit]

## COCCCN=C1NN=C(c2cc(C)n(Cc3ccccc3Cl)c2C)CS1
[1]
  AC50: 4.47 µM [falling, partial curve, poor fit]

## Cc1cc(O)ccc1N=Cc1c(C(F)(F)F)[nH][nH]c1=O
[1]
  AC50: 35.5 µM [falling, single point]

## Cc1cc(C)n(-c2c(C)[nH]c3ccccc23)n1
[1]
  AC50: 35.5 µM [falling, single point]

## COc1ccccc1NC(=O)c1cccc2c(Br)cccc12
[1]
  AC50: 14.1 µM [rising, partial curve, poor fit]

## CCOC(=O)c1sc(NC(=S)NC(=O)c2ccccc2Cl)c(C(=O)OCC)c1C
[1]
  AC50: 0.00461 µM [rising, full curve, poor fit]

## CCCc1nc2ccccc2c(C(=O)OCc2nnc(-c3cc(OC)c(OC)c(OC)c3)o2)c1CC
[1]
  AC50: 29.1 µM [falling, single point]

## O=C(Nc1ccccc1)Nc1ccc(-n2ccc(C(F)(F)F)n2)cc1
[1]
  AC50: 0.708 µM [rising, full curve, poor fit]

## c1ccc(-c2csc(-c3cccnc3)n2)cc1
[1]
  AC50: 35.5 µM [rising, single point]

## O=C(Nc1cccc(OC(=O)c2cccnc2)c1)c1cccnc1
[1]
  AC50: 12.6 µM [falling, partial curve, poor fit]

## COc1cc(C(C[N+](=O)[O-])c2c(C)[nH]c3ccccc23)cc(OC)c1OC (configuration not stated)
[1]
  AC50: 29.1 µM [falling, single point]

## CCCCOCCCNC(=O)c1ccc(OC)cc1
[1]
  AC50: 6.51 µM [rising, single point]

## CCN(CC)c1ccc(NS(=O)(=O)c2cn(C)c(=O)n(C)c2=O)c(C)c1
[1]
  AC50: 5.01 µM [falling, partial curve, poor fit]

## CCOc1ccc2[nH]cc(C(=O)NCc3ccccc3)c(=O)c2c1
[1]
  AC50: 3.16 µM [falling, full curve]

## COc1ccc(C(=O)/C(=C\c2ccco2)N2C=CC=CC2=C(C#N)C#N)cc1
[1]
  AC50: 35.5 µM [falling, single point]

## O=C(CNC(c1ccccc1)c1ccccc1)Nc1ccccc1-c1ccccc1
[1]
  AC50: 25.9 µM [falling, single point]

## O=C(O/N=C/c1ccc(Cl)cc1)C1CCCCC1
[1]
  AC50: 25.1 µM [rising, single point]

## COc1ccccc1NC(=O)Nc1ccc2[nH]c(=O)[nH]c2c1
[1]
  AC50: 10 µM [falling, partial curve]

## CCN(CC)c1ccc(/C=N/NC(=S)NC)c(O)c1
[1]
  AC50: 1.58 µM [rising, partial curve]
[2]
  AC50: 1.12 µM [falling, full curve]

## COc1ccc(NC(=S)NC(=O)/C=C/c2ccco2)cc1
[1]
  AC50: 35.5 µM [rising, single point]
[2]
  AC50: 3.55 µM [falling, full curve]

## COc1cccc(C2C(C(=O)c3cccs3)=C(O)C(=O)N2CCN2CCOCC2)c1OC (configuration not stated)
[1]
  AC50: 22.4 µM [rising, single point]

## CCOc1ccc(Br)cc1S(=O)(=O)NC(=O)c1ccccc1
[2]
  AC50: 12.6 µM [rising, partial curve, poor fit]

## CC(C)OC(=O)CSc1nnc(-c2ccc(Cl)cc2Cl)n1N
[1]
  AC50: 20.6 µM [falling, partial curve, poor fit]

## O=C(CSc1nc2ccc(Cl)cc2[nH]1)c1c[nH]c2ccccc12
[1]
  AC50: 35.5 µM [falling, partial curve, poor fit]

## CC(C)c1ccc(-c2noc(C3CCCN(S(C)(=O)=O)C3)n2)cc1 (configuration not stated)
[1]
  AC50: 10.3 µM [rising, partial curve, poor fit]

## C/C=C/COC(=O)c1[nH]c2c(c1C)C(=O)CC(c1ccco1)C2 (configuration not stated)
[1]
  AC50: 3.66 µM [rising, full curve]

## CCCc1cc(=O)n2[nH]c(SCc3ccccc3)nc2n1
[1]
  AC50: 5.17 µM [falling, partial curve]

## Cc1ccc(-n2cnc3cc(C(=O)NC4CCCCCC4)ccc32)c(C)c1
[1]
  AC50: 35.5 µM [rising, single point]

## CC(C)c1c(C(=O)N/N=C/c2cccc(OCc3ccccc3)c2)nnn1-c1nonc1N
[1]
  AC50: 22.4 µM [rising, single point]

## O=C(NNC(=S)Nc1cccc(Cl)c1)c1ccccc1
[1]
  AC50: 4.47 µM [falling, full curve, poor fit]

## CCCCCc1ccc(-c2ccc(=O)[nH]n2)cc1
[1]
  AC50: 2.51 µM [rising, partial curve, poor fit]

## CCOC(=O)c1c(NC(=S)Nc2ccc(F)cc2)sc2c1CCC2
[1]
  AC50: 29.1 µM [falling, single point]

## N#CCCn1nc(-c2ccc([N+](=O)[O-])cc2)cc1Nc1ccccc1NC(=O)C(F)(F)F
[1]
  AC50: 23.1 µM [falling, single point]
[2]
  AC50: 29.1 µM [rising, single point]

## CCOC(=S)NC(=O)c1sc2ccccc2c1Cl
[1]
  AC50: 11.2 µM [falling, single point]

## O=C(CSc1nc(-c2ccc(F)cc2)cs1)N1CCN(C(=O)c2ccco2)CC1
[1]
  AC50: 35.5 µM [falling, single point]

## CCCCn1c(SCC(=O)Nc2cccc(OC)c2)nc2ccc(N3CCOCC3)cc2c1=O
[1]
  AC50: 0.82 µM [falling, full curve, poor fit]

## CCOC(=O)c1c(/N=C/C2=C(O)CC(C)(C)CC2=O)sc2c1CCCC2
[1]
  AC50: 17.8 µM [rising, partial curve, poor fit]

## CCOC(=O)c1c(C)[nH]c(C(=O)COC(=O)C23CC4CC(CC(Cl)(C4)C2)C3)c1C
[1]
  AC50: 0.0326 µM [falling, full curve, poor fit]

## O=C(COc1cccc(-n2cnnn2)c1)Nc1ccc([N+](=O)[O-])cc1
[1]
  AC50: 0.708 µM [rising, full curve, poor fit]

## O=C(Nc1ccccc1)C1=C[C@@H](C2CC2)C[C@@H](OCCCCO)O1
[1]
  AC50: 5.01 µM [rising, full curve, poor fit]

## N#Cc1nc(COc2ccccc2)oc1N1CCCCC1
[1]
  AC50: 7.08 µM [rising, partial curve, poor fit]

## Cc1ccc(S(=O)(=O)N2CCC(c3nc4c(nnn4Cc4ccccc4)c(=O)[nH]3)CC2)cc1
[1]
  AC50: 35.5 µM [falling, single point]

## CC(=O)c1ccc2c(c1)C1C=CCC1C(c1ccc(S(=O)(=O)N3CCOCC3)cc1)N2 (configuration not stated)
[1]
  AC50: 0.00411 µM [falling, full curve, poor fit]

## Cc1c(-n2cccc2C=O)cccc1[N+](=O)[O-]
[1]
  AC50: 3.16 µM [rising, partial curve, poor fit]

## O=C(Cc1ccc(Cl)cc1)NCCS(=O)(=O)N1CCN(c2ccccc2F)CC1
[2]
  AC50: 32.6 µM [falling, partial curve, poor fit]

## CCN(CC)Cc1c(O)ccc2c(=O)c(-c3ccc4c(c3)OCCO4)coc12
[1]
  AC50: 6.51 µM [rising, partial curve, poor fit]

## O=C(Nc1cccc2nsnc12)c1ccc2c(c1)OCCO2
[1]
  AC50: 12.6 µM [falling, partial curve, poor fit]

## CC1(C)Cc2c(sc3nc(SCC(=O)O)[nH]c(=O)c23)CO1
[1]
  AC50: 35.5 µM [rising, partial curve, poor fit]

## S=c1sc2c(Cl)ncnc2n1-c1ccccc1
[1]
  AC50: 35.5 µM [rising, single point]
[2]
  AC50: 35.5 µM [falling, single point]

## CC(C)c1nnc(NC(=O)c2cccs2)s1
[1]
  AC50: 18.4 µM [falling, partial curve, poor fit]

## Cc1cc(NC(=O)CCC(=O)N(c2ccccc2)C(C(=O)NC2CCCC2)c2ccncc2)no1 (configuration not stated)
[1]
  AC50: 14.1 µM [rising, partial curve, poor fit]

## COc1cc(/C=N/N(CCO)C2=NS(=O)(=O)c3ccccc32)cc(OC)c1OC
[1]
  AC50: 7.08 µM [rising, full curve, poor fit]

## Cc1[nH]n(-c2ccccc2)c(=O)c1Sc1ccc(Cl)cc1
[1]
  AC50: 20 µM [falling, single point]

## CC1CC(=O)Nc2ccccc2N1S(=O)(=O)c1cccc(Cl)c1 (configuration not stated)
[1]
  AC50: 23.1 µM [rising, single point]

## C=CCNC(=O)c1csc(-c2ccccc2)n1
[1]
  AC50: 11.2 µM [rising, partial curve, poor fit]

## COc1ccccc1N(C(=O)c1ccco1)C(C(=O)NC1CCCC1)c1ccncc1 (configuration not stated)
[1]
  AC50: 20 µM [falling, single point]

## Cc1ccc(F)c([C@H]2C3C=CCC(c4ccccc4)C3C(=O)N2Cc2ccccc2)c1 (some centres not stated)
[1]
  AC50: 5.62 µM [falling, single point]

## CSCCC(NC(=O)c1ccccc1Cl)C(=O)N1CCN(C(c2ccccc2)c2ccccc2)CC1 (configuration not stated)
[1]
  AC50: 35.5 µM [falling, single point]

## CCN(CC)c1ccc(/C=C/c2ccc3ccc(OC)cc3[n+]2CC)cc1
[1]
  AC50: 35.5 µM [falling, single point]

## O=C(C[C@H]1C/C=C\C[C@H](NC(=O)OCC2c3ccccc3-c3ccccc32)C(=O)O[C@H](c2ccccc2)CNC1=O)N[C@H](CO)Cc1ccccc1
[1]
  AC50: 29.1 µM [falling, single point]
